Our source for the binding values is article PMC4477410.

Protein sequences, listed by entry. Tags and fused reporters are not part of them. Lines headed by an entry give the natural chain unless they say otherwise; changes in a name come on top.
UniProt P29476: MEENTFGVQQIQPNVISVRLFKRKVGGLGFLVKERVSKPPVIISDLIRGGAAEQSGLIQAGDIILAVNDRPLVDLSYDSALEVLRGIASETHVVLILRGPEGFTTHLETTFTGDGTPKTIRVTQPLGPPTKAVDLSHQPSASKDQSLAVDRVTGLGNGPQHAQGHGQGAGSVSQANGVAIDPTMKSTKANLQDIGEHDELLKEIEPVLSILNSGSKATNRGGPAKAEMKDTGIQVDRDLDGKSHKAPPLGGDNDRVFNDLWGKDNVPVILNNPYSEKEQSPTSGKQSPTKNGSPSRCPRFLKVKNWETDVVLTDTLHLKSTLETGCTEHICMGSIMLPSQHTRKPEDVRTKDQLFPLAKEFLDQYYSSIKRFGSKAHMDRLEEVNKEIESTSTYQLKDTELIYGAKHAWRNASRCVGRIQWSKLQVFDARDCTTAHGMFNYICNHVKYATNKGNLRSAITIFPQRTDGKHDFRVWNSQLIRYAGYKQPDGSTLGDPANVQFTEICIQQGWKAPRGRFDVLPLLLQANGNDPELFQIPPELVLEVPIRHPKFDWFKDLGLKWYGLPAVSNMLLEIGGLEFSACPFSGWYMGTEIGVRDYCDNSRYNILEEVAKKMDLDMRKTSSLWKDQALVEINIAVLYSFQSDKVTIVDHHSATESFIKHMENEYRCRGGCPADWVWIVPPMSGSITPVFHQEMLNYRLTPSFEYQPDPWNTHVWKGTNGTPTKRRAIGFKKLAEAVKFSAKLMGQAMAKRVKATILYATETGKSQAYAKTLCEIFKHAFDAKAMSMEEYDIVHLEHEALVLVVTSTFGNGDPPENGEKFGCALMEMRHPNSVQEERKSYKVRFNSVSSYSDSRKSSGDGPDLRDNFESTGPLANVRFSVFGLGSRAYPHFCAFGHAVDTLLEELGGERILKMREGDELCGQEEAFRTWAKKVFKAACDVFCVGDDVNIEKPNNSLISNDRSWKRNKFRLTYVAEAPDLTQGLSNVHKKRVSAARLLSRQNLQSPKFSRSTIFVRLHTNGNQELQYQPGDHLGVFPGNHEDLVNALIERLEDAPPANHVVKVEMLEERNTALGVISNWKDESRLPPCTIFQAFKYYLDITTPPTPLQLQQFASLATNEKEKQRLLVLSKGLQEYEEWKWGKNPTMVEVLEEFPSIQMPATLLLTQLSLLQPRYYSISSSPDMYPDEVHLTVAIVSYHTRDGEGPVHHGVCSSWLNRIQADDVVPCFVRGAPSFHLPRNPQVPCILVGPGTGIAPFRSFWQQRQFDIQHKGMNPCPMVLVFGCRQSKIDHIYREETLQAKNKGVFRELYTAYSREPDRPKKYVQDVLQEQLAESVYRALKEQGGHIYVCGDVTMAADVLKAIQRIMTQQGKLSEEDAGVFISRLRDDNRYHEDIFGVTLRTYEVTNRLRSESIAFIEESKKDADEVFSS

These are yes or no findings as the source states them, for the method shown. In cells and extracts the contact can be indirect. Binding can be weak; no strength is given. Where a sequence is shown, tags or fusion partners need not be part of it.

The assay has as its target PDZ domain of neuronal nitric oxide synthase (nNOS), Rluc PCA fusion (UniProt P29476). As to the kind of experiment: split reporter; Rluc PCA in S. cerevisiae MATa cells grown in galactose medium; about 1 x 10^6 cells, 10 uM benzyl-coelenterazine; with glucose (100 mM) or galactose.

B1: PDZ domain of aSyntrophin (aSyn), Rluc PCA fusion (domain or fragment, UniProt Q61234 81-164)
chain: RVTVRKADAGGLGISIKGGRENKMPILISKIFKGLAADQTEALFVGDAILSVNGEDLSSATHDEAVQALKKTGKEVVLEVKYMK
With B1, the binding result was “binds”.
